Test results: PubChem BioAssay AID330 (DTP/NCI, 2004)
The list is a part of this screen's results and no random one: it gathers tests that were run many times, whatever their T/C, doses with no T/C, and many T/C values between a quarter and a half above the control. Further doses and runs are listed elsewhere. T/C gives the treated animals as a percentage of the vehicle group. Some doses have a count of surviving animals in place of a T/C: the source files T/C as zero there, which appears to mark a toxic dose or a test without result, not a measured value. Some survivor counts are full or nearly so, which does not show that the dose was tolerated: survival well below the control is almost never listed, so the zero probably covers shortened survival too. Survivors were counted at the toxicity check, usually on the fifth day, unless a day is given; later deaths do not show. Schedules are NCI's codes, read here as Q, the interval in days (D) or hours (H), X, the number of doses. Some entries were tested several times; the values are given in rising order. Where survival is the endpoint, the PubChem record calls one and a half times the control and up active, and a quarter to a half above the control has no call in these data; cut-offs in other NCI protocols can differ. Marks such as (2×) count equal records among those shown. Some T/C values carry the count of animals alive at the toxicity check (mostly the fifth day); where none is given, no animal had died by that day.

Test system: P388 leukemia ip, CD2F1 mice, survival T/C
Experiment: NCI In Vivo Anticancer Drug Screen. Data for tumor model P388 Leukemia (intraperitoneal) in CD2F1 (CDF1) mice
Settings: T/C endpoint: median survival time, higher T/C = longer survival
[1] = dose: 120.0 mg/kg/injection, schedule: Q01DX005 (ip), vehicle: Klucel (hydroxypropylcellulose) (HPC)
[2] = dose: 240.0 mg/kg/injection, schedule: Q01DX005 (ip), vehicle: Klucel (hydroxypropylcellulose) (HPC)
[3] = dose: 400.0 mg/kg/injection, schedule: Q04DX003 (ip), vehicle: saline
[4] = dose: 200.0 mg/kg/injection, schedule: Q01DX009 (ip), vehicle: Klucel (hydroxypropylcellulose) (HPC)
[5] = dose: 50.0 mg/kg/injection, schedule: Q01DX005 (ip), vehicle: Klucel (hydroxypropylcellulose) (HPC)
[6] = dose: 200.0 mg/kg/injection, schedule: Q01DX005 (ip), vehicle: Klucel (hydroxypropylcellulose) (HPC)
[7] = dose: 400.0 mg/kg/injection, schedule: Q04DX002 (ip), vehicle: water
[8] = dose: 200.0 mg/kg/injection, schedule: Q01DX009 (ip), vehicle: saline
[9] = dose: 100.0 mg/kg/injection, schedule: Q01DX005 (ip), vehicle: Klucel (hydroxypropylcellulose) (HPC)
[10] = dose: 30.0 mg/kg/injection, schedule: Q01DX005 (ip), vehicle: saline with Tween-80
[11] = dose: 60.0 mg/kg/injection, schedule: Q01DX005 (ip), vehicle: saline with Tween-80
[12] = dose: 120.0 mg/kg/injection, schedule: Q01DX005 (ip), vehicle: saline with Tween-80
[13] = dose: 240.0 mg/kg/injection, schedule: Q01DX005 (ip), vehicle: saline with Tween-80
[14] = dose: 100.0 mg/kg/injection, schedule: Q01DX009 (ip), vehicle: saline with Tween-80
[15] = dose: 50.0 mg/kg/injection, schedule: Q01DX009 (ip), vehicle: saline

CC1=C(C)C(C#N)N(C)CC1 (stereo unspecified)
survivor count (dose: 15.0 mg/kg/injection, schedule: Q01DX005 (ip), vehicle: Klucel (hydroxypropylcellulose) (HPC)): 0 of 6 | survivor count (dose: 60.0 mg/kg/injection, schedule: Q01DX005 (ip), vehicle: Klucel (hydroxypropylcellulose) (HPC)): 0 of 6 | survivor count [1]: 0 of 6 | survivor count [2]: 0 of 6

C1=Nc2ccccc2OCCOc2ccccc2N=Cc2ccccc2NCCNc2ccccc21
T/C [3]: 133 % of control

C/C=C/C(=O)Sc1ccccc1
survivor count (dose: 100.0 mg/kg/injection, schedule: Q01DX009 (ip), vehicle: Klucel (hydroxypropylcellulose) (HPC)): 0 of 6 | survivor count [4]: 0 of 6

Cn1c(-c2ccccc2)c(COC(=O)NC2CCCCC2)c(COC(=O)NC2CCCCC2)c1-c1ccc(Cl)cc1
T/C (dose: 12.5 mg/kg/injection, schedule: Q01DX009 (ip), vehicle: distilled water + Tween-80): 127 % of control | T/C (dose: 18.8 mg/kg/injection, schedule: Q01DX009 (ip), vehicle: distilled water + Tween-80): 131 % of control | T/C (dose: 25.0 mg/kg/injection, schedule: Q01DX009 (ip), vehicle: distilled water + Tween-80): 136 % of control | T/C (dose: 37.5 mg/kg/injection, schedule: Q01DX009 (ip), vehicle: distilled water + Tween-80): 149 % of control [5 of 6 alive] | T/C (dose: 150.0 mg/kg/injection, schedule: Q01DX009 (ip), vehicle: distilled water + Tween-80): 128 % of control | survivor count (dose: 300.0 mg/kg/injection, schedule: Q01DX009 (ip), vehicle: distilled water + Tween-80): 3 of 6

CCN(CCCNc1cc(OC)cc2cccnc12)C(C)C
survivor count (dose: 50.0 mg/kg/injection, schedule: Q01DX005 (ip), vehicle: saline): 0 of 5 | survivor count (dose: 100.0 mg/kg/injection, schedule: Q01DX005 (ip), vehicle: saline): 0 of 5 | survivor count (dose: 200.0 mg/kg/injection, schedule: Q01DX005 (ip), vehicle: saline): 0 of 5

COc1cc2c(c(OC)c1OC)-c1ccc(OC)c(=O)cc1C([N+](C)(C)C)CC2 (stereo unspecified)
survivor count (dose: 40.0 mg/kg/injection, schedule: Q01DX009 (ip), vehicle: Klucel (hydroxypropylcellulose) (HPC)): 3 of 6

O=C1Nc2ccccc2/C1=N/n1c(-c2ccccc2)nc2ccccc2c1=O
survivor count [5]: 5 of 6

Cc1cccc(C)c1-n1c(C)nc2c(c(C)c(C)n2-c2ccccc2)c1=N
survivor count [6]: 0 of 6

O=c1[nH]c(=O)n(C2CC(O)C(CO)O2)cc1F (stereo unspecified)
T/C (dose: 5.0 mg/kg/injection, schedule: Q01DX010 (ip), vehicle: saline): 136 % of control | T/C (dose: 25.0 mg/kg/injection, schedule: Q04DX002 (ip), vehicle: water): 112, 113, 115, 117, 121, 122, 136 % of control | T/C (dose: 38.9 mg/kg/injection, schedule: Q04DX003 (ip), vehicle: saline): 135 % of control | T/C (dose: 50.0 mg/kg/injection, schedule: Q04DX002 (ip), vehicle: water): 117, 118, 119, 120, 124, 135, 142 % of control | T/C (dose: 51.8 mg/kg/injection, schedule: Q04DX002 (ip), vehicle: saline): 125 % of control | T/C (dose: 64.8 mg/kg/injection, schedule: Q04DX003 (ip), vehicle: saline): 136 % of control | T/C (dose: 86.4 mg/kg/injection, schedule: Q04DX002 (ip), vehicle: saline): 128 % of control | T/C (dose: 100.0 mg/kg/injection, schedule: Q04DX002 (ip), vehicle: water): 115, 122, 125, 131, 133, 144 % of control (2×) | T/C (dose: 108.0 mg/kg/injection, schedule: Q04DX003 (ip), vehicle: saline): 138 % of control | T/C (dose: 110.0 mg/kg/injection, schedule: Q01DX009 (ip), vehicle: saline): 139 % of control | T/C (dose: 144.0 mg/kg/injection, schedule: Q04DX002 (ip), vehicle: saline): 134 % of control | T/C (dose: 180.0 mg/kg/injection, schedule: Q04DX003 (ip), vehicle: saline): 148 % of control | T/C (dose: 200.0 mg/kg/injection, schedule: Q04DX002 (ip), vehicle: water): 130, 134, 140, 158 (2×), 160, 165 % of control | T/C (dose: 400.0 mg/kg/injection, schedule: Q01DX001 (ip), vehicle: saline): 127 % of control | T/C [7]: 101, 136, 159, 163 % of control | survivor count [7]: 5 of 5 and 6 of 6

CC(=O)c1cc(C)oc1C
survivor count [8]: 1 of 6

CCN=C(NCC)Nc1ccc(NC(=O)Nc2ccc(NC(=O)Nc3ccc(NC(=NCC)NCC)cc3)cc2)cc1
T/C [5]: 130 % of control | T/C [9]: 126 % of control | survivor count [9]: 6 of 6

CCOC(=O)Nc1ccc(C2OCCS2)cc1 (stereo unspecified)
survivor count (dose: 100.0 mg/kg/injection, schedule: Q01DX005 (ip), vehicle: saline with Tween-80): 6 of 6

CC(=O)C1=C(O)/C(=C\c2ccccc2)OC1=O
survivor count [4]: 0 of 6

CCOC(=O)N/N=C/c1ccc[nH]1
survivor count (dose: 15.0 mg/kg/injection, schedule: Q01DX005 (ip), vehicle: saline with Tween-80): 6 of 6 | survivor count [10]: 0 of 6 | survivor count [11]: 0 of 6 | survivor count [12]: 0 of 6 | survivor count [13]: 0 of 6

COC1C=COC2(C)Oc3c(C)c(O)c4c(O)c(c(C5SCCS5)c(O)c4c3C2=O)NC(=O)/C(C)=C\C=CC(C)C(O)C(C)C(O)C(C)C(OC(C)=O)C1C (stereo unspecified)
T/C [14]: 129 % of control

O=C1Nc2ccccc2C(=O)C1=Ic1ccccc1
survivor count [1]: 2 of 6 | survivor count [6]: 6 of 6 | survivor count [2]: 0 of 6

CCOC1OCN(C)CC1(C)C (stereo unspecified)
T/C [15]: 140 % of control | T/C [8]: 140 % of control

CCCCCCCNC1=C(N2CC2)C(=O)C(NCCCCCCC)=C(N2CC2)C1=O
survivor count (dose: 1.25 mg/kg/injection, schedule: Q01DX009 (ip), vehicle: saline): 0 of 6

Cc1c(-c2ccccc2)ccnc1/C=N/NC(=S)NCCc1ccccn1
T/C (dose: 50.0 mg/kg/injection, schedule: Q01DX009 (ip), vehicle: saline with Tween-80): 138 % of control | survivor count [14]: 6 of 6 | survivor count (dose: 200.0 mg/kg/injection, schedule: Q01DX009 (ip), vehicle: saline with Tween-80): 4 of 6

N#CC1(C#N)C(C#N)(C#N)C12CCCCCC2
survivor count (dose: 50.0 mg/kg/injection, schedule: Q04DX003 (ip), vehicle: Klucel (hydroxypropylcellulose) (HPC)): 4 of 6 | survivor count (dose: 100.0 mg/kg/injection, schedule: Q04DX003 (ip), vehicle: Klucel (hydroxypropylcellulose) (HPC)): 1 of 6 | survivor count (dose: 200.0 mg/kg/injection, schedule: Q04DX003 (ip), vehicle: Klucel (hydroxypropylcellulose) (HPC)): 0 of 6 | survivor count (dose: 400.0 mg/kg/injection, schedule: Q04DX003 (ip), vehicle: Klucel (hydroxypropylcellulose) (HPC)): 0 of 6

COc1cc(O)c(/C=N/NC(=S)NC23CC4CC(CC(C4)C2)C3)c(OC)c1
survivor count [10]: 5 of 5 and 6 of 6 | survivor count [11]: 6 of 6 | survivor count [12]: 6 of 6 | survivor count [13]: 6 of 6

C1CN2CN3CCN(CN1C3)C2
T/C (dose: 12.5 mg/kg/injection, schedule: Q01DX009 (ip), vehicle: saline): 128 % of control | T/C (dose: 25.0 mg/kg/injection, schedule: Q01DX009 (ip), vehicle: saline): 146 % of control | T/C [15]: 136 % of control | T/C (dose: 100.0 mg/kg/injection, schedule: Q01DX009 (ip), vehicle: saline): 129 % of control [5 of 6 alive] | survivor count [8]: 5 of 6 and 6 of 6

CN1C2CCC1c1c([nH]c3ccccc13)C2 (stereo unspecified)
survivor count [13]: 0 of 6

CC(=O)OC(C)C(C)N(C)C (stereo unspecified)
survivor count [3]: 1 of 6
